Reference: PMC12196060

Target: pGBKT7-FpSae2 (Fusarium proliferatum)
Test: two-hybrid; FpSae2 in pGBKT7 (GAL4 DNA-binding domain), FpFumB in pGADT7 (GAL4 activation domain), co-transformed into S. cerevisiae Y2H Gold; growth on QDO (SD/-Trp/-Leu/-His/-Ade)

binding: binds
Substance: pGADT7-FpFumB (from UniProt A0A1L7VE85) (enzyme)

No constants are given. Whether binding was seen depends on the method and setting. A result given as binding can be weak or reduced; the word gives no strength.
